Record: PubChem BioAssay AID1159578 (Peter MacCallum Cancer Centre, 2015)

Purpose: 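Knock-downs that alter how fast lymphatic endothelial cells migrate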 (primary screen)
Cell system: human lymphatic endothelial cells
Knock-down reagent: siRNA pool against human genes, 40 nM
Duration: 48 h after transfection
Detection: 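Cells stained with dye and imaged after a scratch; covered wound area and nuclei counted, duplicates averaged, migration set against mock wells and turned into a robust z-score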
Direction: migration robust z-score: higher = faster migration into the scratch; migration relative to mock: higher = more scratch area covered than mock; nuclei per well: higher = more cells in the well
Call rule: 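Migration changed when robust z exceeds 2 or falls below -2 and mean nuclei number is at least 3300; otherwise not called changed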
Meaning of the calls: active = migration changed; inactive = no migration change, or too few cells
In all, the deposit lists about 18,000 reagents; below is a part drawn at random. Of all reagents, about 1,030 (5.7%) got an active call. 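Inactive calls also include pools with fewer than 3300 nuclei, whose migration was not assessed.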 The raw values are shown without normalisation. Unmarked entries are inactive.

no.	target	migration robust z-score	migration class with cell-count check	migration relative to mock	nuclei per well, duplicate mean
1	CEACAM21 (GeneID 90273)	0.18	migration z between -2 and 2; enough cells	0.93	6568
2	ZNF112 (GeneID 7771)	-0.78	migration z between -2 and 2; enough cells	0.68	5294
3	NCOA4 (GeneID 8031)	-1.66	migration z between -2 and 2; enough cells	0.48	3723
4	RXFP2 (GeneID 122042)	-0.44	migration z between -2 and 2; enough cells	0.72	4492
5	UQCR11 (GeneID 10975)	1.48	migration z between -2 and 2; enough cells	1.09	6502
6	ALDH1A3 (GeneID 220)	-0.86	migration z between -2 and 2; enough cells	0.66	7043
7	RTF2 (GeneID 51507)	1.72	migration z between -2 and 2; enough cells	1.33	5774
8	LGALS4 (GeneID 3960)	-1.5	migration z between -2 and 2; enough cells	0.52	5769
9	CCDC122 (GeneID 160857)	0.14	migration z between -2 and 2; enough cells	0.92	5415
10	HOXA6 (GeneID 3203)	-0.6	migration z between -2 and 2; enough cells	0.73	4590
11	HOOK2 (GeneID 29911)	1.34	migration z between -2 and 2; enough cells	1.23	3787
12	ZFAND6 (GeneID 54469)	0.08	migration z between -2 and 2; enough cells	0.82	5354
13	DICER1 (GeneID 23405)	-1.31	migration z between -2 and 2; enough cells	0.54	5652
14	PROX2 (GeneID 283571)	-0.56	migration z between -2 and 2; enough cells	0.74	6506
15	PAH (GeneID 5053)	1.3	migration z between -2 and 2; enough cells	1.06	5037
16	SHOC1 (GeneID 158401)	-0.26	migration z between -2 and 2; enough cells	0.82	6454
17	RASL10B (GeneID 91608)	-0.16	migration z between -2 and 2; enough cells	0.84	6462
18	PNISR (GeneID 25957)	0.94	migration z between -2 and 2; enough cells	1.12	5488
19	TRPM7 (GeneID 54822)	0.13	migration z between -2 and 2; enough cells	0.83	6360
20	DMGDH (GeneID 29958)	0.18	migration z between -2 and 2; enough cells	0.84	5434
21	DPH6 (GeneID 89978)	-0.06	migration z between -2 and 2; enough cells	0.87	5796
22	SDHAF1 (GeneID 644096)	0.62	migration z between -2 and 2; enough cells	1.05	3949
23	COA6 (GeneID 388753)	0.99	migration z between -2 and 2; enough cells	1.15	5203
24	KLK5 (GeneID 25818)	-2.34 (active)	migration z below -2; enough cells	0.36	3640
25	ATP5F1E (GeneID 514)	-0.7	migration z between -2 and 2; enough cells	0.67	5760
26	F8A2 (GeneID 474383)	-0.3	migration z between -2 and 2; enough cells	0.8	5346
27	KLF13 (GeneID 51621)	0.78	migration z between -2 and 2; enough cells	0.96	5930

Targets listed so far whose target name starts with K or k (2):
target	migration robust z-score	migration class with cell-count check	migration relative to mock	nuclei per well, duplicate mean
KLK5 (GeneID 25818)	-2.34 (active)	migration z below -2; enough cells	0.36	3640
KLF13 (GeneID 51621)	0.78	migration z between -2 and 2; enough cells	0.96	5930

Additional results follow.
no.	target	migration robust z-score	migration class with cell-count check	migration relative to mock	nuclei per well, duplicate mean
28	TADA2A (GeneID 6871)	0.86	migration z between -2 and 2; enough cells	0.97	5675
29	TSLP (GeneID 85480)	0.17	migration z between -2 and 2; enough cells	0.94	6176
30	FGFR1 (GeneID 2260)	-3.4	under 3300 nuclei; migration not judged	0.15	2488
31	ITSN1 (GeneID 6453)	-0.08	migration z between -2 and 2; enough cells	0.86	5810
32	F2RL2 (GeneID 2151)	1.09	migration z between -2 and 2; enough cells	1.02	6432
33	RFX6 (GeneID 222546)	1.34	migration z between -2 and 2; enough cells	1.23	6551
34	LANCL1 (GeneID 10314)	1.06	migration z between -2 and 2; enough cells	1.01	4998
35	ARRB1 (GeneID 408)	-1.04	migration z between -2 and 2; enough cells	0.61	5981
36	GPR61 (GeneID 83873)	-0.78	migration z between -2 and 2; enough cells	0.66	5258
37	CDK19 (GeneID 23097)	-1.53	migration z between -2 and 2; enough cells	0.51	6186
38	PHF6 (GeneID 84295)	0.11	migration z between -2 and 2; enough cells	0.82	5526
39	MAF1 (GeneID 84232)	-0.81	migration z between -2 and 2; enough cells	0.68	4924
40	SEH1L (GeneID 81929)	-0.11	migration z between -2 and 2; enough cells	0.86	6152
41	GINS2 (GeneID 51659)	0.72	migration z between -2 and 2; enough cells	1.07	6260
42	JPH1 (GeneID 56704)	0.7	migration z between -2 and 2; enough cells	1.07	6632
43	SHROOM3 (GeneID 57619)	-1.5	migration z between -2 and 2; enough cells	0.5	3518
44	FAM120B (GeneID 84498)	0.22	migration z between -2 and 2; enough cells	0.94	5404
45	STARD13 (GeneID 90627)	-0.73	migration z between -2 and 2; enough cells	0.7	6307
46	KIF3B (GeneID 9371)	0.26	migration z between -2 and 2; enough cells	0.86	4132
47	KCNAB3 (GeneID 9196)	0	migration z between -2 and 2; enough cells	0.8	5718
48	ZNF700 (GeneID 90592)	-0.2	migration z between -2 and 2; enough cells	0.84	6365
49	VPS29 (GeneID 51699)	0.39	migration z between -2 and 2; enough cells	0.88	6766
50	LPO (GeneID 4025)	-0.24	migration z between -2 and 2; enough cells	0.76	6492
51	OR13D1 (GeneID 286365)	1.03	migration z between -2 and 2; enough cells	1.16	7076
52	LRRC7 (GeneID 57554)	0.88	migration z between -2 and 2; enough cells	1.12	5658
53	NLRP9 (GeneID 338321)	-0.46	migration z between -2 and 2; enough cells	0.72	3512
54	PERP (GeneID 64065)	0.55	migration z between -2 and 2; enough cells	1.03	6124
55	CMKLR2 (GeneID 2825)	0.86	migration z between -2 and 2; enough cells	0.97	5636
56	OR52A1 (GeneID 23538)	0.26	migration z between -2 and 2; enough cells	0.96	6381
57	RGS2 (GeneID 5997)	0.62	migration z between -2 and 2; enough cells	1.04	6275
